Source: patent publication US5962408A (Nycomed Imaging AS, priority 1994, dated 1999)

Experiment: general procedure: Fmoc solid-phase peptide synthesis; Fmoc-Cys(Trt)-p-alkoxybenzyl alcohol resin (0.55 mmol/g); HBTU/HOBt/iPr2NEt in NMP
Conditions: whole synthesis, 215 nm, scale of the general procedure 0.1 mmol

PEPTIDE1{C.E.Q.Y.C}$PEPTIDE1,PEPTIDE1,1:R3-5:R3$$$V2.0
final HPLC purity: >99%

Some peptides are written in HELM: one residue between dots, names in brackets for other building blocks, links after the first $.
